Reference: PMC1852583
Results are given in words; binding and its absence hold for the method and conditions named. Binding seen in cells or lysates may run through a third protein. Some binding calls cover weakened binding; strength is not graded here.

Chains of the proteins cited; added tags and fusions are not shown.
UniProt Q9JHL4: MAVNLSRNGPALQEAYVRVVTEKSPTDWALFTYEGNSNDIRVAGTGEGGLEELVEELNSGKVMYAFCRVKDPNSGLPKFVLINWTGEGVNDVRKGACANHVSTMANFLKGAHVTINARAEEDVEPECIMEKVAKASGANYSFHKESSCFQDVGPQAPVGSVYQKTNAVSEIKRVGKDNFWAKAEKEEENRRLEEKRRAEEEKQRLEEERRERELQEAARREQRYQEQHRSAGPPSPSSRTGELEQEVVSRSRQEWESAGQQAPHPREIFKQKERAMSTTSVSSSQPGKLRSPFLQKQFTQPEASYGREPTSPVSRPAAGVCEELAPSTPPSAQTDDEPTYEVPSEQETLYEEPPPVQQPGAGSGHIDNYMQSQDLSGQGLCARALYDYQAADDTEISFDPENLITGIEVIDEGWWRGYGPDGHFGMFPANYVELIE
UniProt O08816: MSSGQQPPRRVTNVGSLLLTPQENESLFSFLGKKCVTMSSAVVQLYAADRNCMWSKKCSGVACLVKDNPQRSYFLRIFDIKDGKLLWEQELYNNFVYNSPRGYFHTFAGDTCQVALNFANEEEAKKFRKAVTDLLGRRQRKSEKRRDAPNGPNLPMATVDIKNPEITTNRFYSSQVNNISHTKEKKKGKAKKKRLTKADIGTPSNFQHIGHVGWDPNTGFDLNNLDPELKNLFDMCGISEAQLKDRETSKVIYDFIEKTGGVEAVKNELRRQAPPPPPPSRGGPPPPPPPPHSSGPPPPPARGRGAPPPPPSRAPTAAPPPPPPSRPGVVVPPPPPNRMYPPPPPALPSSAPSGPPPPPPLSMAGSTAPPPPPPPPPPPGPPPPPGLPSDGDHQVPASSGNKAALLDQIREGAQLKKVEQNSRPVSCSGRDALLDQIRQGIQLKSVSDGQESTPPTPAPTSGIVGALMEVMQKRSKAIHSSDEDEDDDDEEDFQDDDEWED

Target: endogenous Abp1 from rat brain (rat (endogenous in rat brain)) (UniProt Q9JHL4)
Assay: co-IP; affinity-purified rabbit anti-Abp1 antibodies or unrelated rabbit IgG, rat brain extracts (1 mg each), 100 mM NaCl; anti-N-WASP immunoblot

endogenous N-WASP from rat brain (from UniProt O08816 1-501)
binding: binds
